The target of the assay is Antibody 4E6G7. The assay can be described thus: competition ELISA: antibody pre-incubated with solubilized PHF in solution, then added to wells coated with solubilized PHF; competitor = plate-coated solubilized PHF [Panel F].

The chains behind the UniProt entries cited, without tags or fusion partners. Where a name states a change or a piece, a line headed by the entry shows the natural chain unless it says otherwise. A line that says so, or that is headed by a name, gives the form on record, which may keep a tag or linker.
solubilized PHF (paired helical filament Tau) from human AD brain (P10636, form named): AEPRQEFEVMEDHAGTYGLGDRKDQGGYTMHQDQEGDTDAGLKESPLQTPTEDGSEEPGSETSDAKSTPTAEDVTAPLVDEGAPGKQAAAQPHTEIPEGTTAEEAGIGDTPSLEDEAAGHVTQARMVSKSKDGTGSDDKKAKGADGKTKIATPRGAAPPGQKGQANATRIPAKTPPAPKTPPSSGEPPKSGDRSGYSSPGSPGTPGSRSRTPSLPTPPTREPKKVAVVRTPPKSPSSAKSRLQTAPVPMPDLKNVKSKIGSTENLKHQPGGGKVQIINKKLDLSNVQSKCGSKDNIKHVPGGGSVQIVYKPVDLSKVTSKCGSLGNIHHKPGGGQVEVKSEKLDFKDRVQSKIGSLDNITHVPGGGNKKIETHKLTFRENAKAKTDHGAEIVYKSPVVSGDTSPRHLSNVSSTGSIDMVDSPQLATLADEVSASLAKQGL

Among the data in patent US20180312608A1 are binding values, retold here.

These are yes or no findings as the source states them, for the method shown. Some binding calls cover weakened binding; strength is not graded here.

“solubilized PHF (paired helical filament Tau) from human AD brain (from UniProt P10636 2-441)”: the binding entry is “binds”.
